# Values from PubChem BioAssay AID1671195 (Yale University, 2021)
# Screen: 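Knockdowns that increase or decrease uptake of fluorescent LDL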 (primary screen)
# Cell system: human Huh7 hepatoma cells
# Reagent: siRNA pool against human genes, 18 nM
# Timing: about 2 to 2.5 days of knockdown, then 8 h LDL uptake
# Conditions: DiI-labelled LDL at 30 µg/ml for 8 h, in lipoprotein-deficient serum medium
# Measurement: 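Per-cell DiI-LDL intensity by automated imaging; well means scaled to the plate median and given as a robust z-score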
# Scale: robust z-score: higher = more LDL uptake after knockdown
# Call rule: 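a gene counts as active if at least two replicate z-scores exceed ±2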
# The deposit covers about 22,000 reagents; this is a random part of them. Over the whole deposit, about 1,510 (6.9%) got an active call. 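Active includes knockdowns raising or lowering LDL uptake; positive z-scores mean more uptake, negative mean less.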
gene,"robust z-score, replicate 1","robust z-score, replicate 2","robust z-score, replicate 3",Outcome
CCDC17,0.911,0.463,-0.237,inactive
NBAS,-0.561,-2.03,-1.66,inactive
OR5D16,0.0957,-0.489,-0.372,inactive
KIF25,-0.814,-0.158,-1.06,inactive
ZNF319,5.85,6.3,5.96,active
CYLC1,-1.1,-1.85,-1.35,inactive
KAT6A,-0.595,-0.786,0.276,inactive
SSU72P1,-0.948,-0.975,-0.876,inactive
FLJ40194,-0.699,-0.333,-0.0253,inactive
TOGARAM2,0.134,-0.79,-0.839,inactive
CNPY4,-0.229,-0.363,-0.41,inactive
CCPG1,-0.82,-0.964,-0.977,inactive
GSPT1,-0.511,-0.572,-0.472,inactive
CHI3L1,-1.36,-1.49,-1.74,inactive
PLPP6,0.147,0.443,0.0327,inactive
ACKR4,1.81,2.84,2.83,active
EPHB6,-0.663,-0.82,-1,inactive
ADAD1,-1.1,-0.931,-0.388,inactive
SAGE2P,0.552,0.203,0.316,inactive
SPINT1,0.427,-0.279,-0.211,inactive
TSHB,-0.127,-2.15,1.12,inactive
EXD1,-0.699,2.29,-0.183,inactive
CD180,-0.545,-0.864,-1.79,inactive
TMEM192,-0.52,-0.625,-0.908,inactive
RIPPLY1,-1.35,-1.42,-0.618,inactive
TLCD3A,0.767,1.31,1.25,inactive
BLTP3A,0.0826,-0.938,0.254,inactive
UBA3,-1.35,-0.794,0.175,inactive

2 entries already listed, sorted by “robust z-score, replicate 3”, high to low:
gene,"robust z-score, replicate 1","robust z-score, replicate 2","robust z-score, replicate 3",Outcome
EXD1,-0.699,2.29,-0.183,inactive
CD180,-0.545,-0.864,-1.79,inactive
